PubChem BioAssay AID1259308 | NCATS, 2017
Assay: 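Candidate targets for better recombinant protein yield in mammalian cells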 (primary screen). System: human HEK293 embryonic kidney cells stably expressing firefly luciferase (HEK-CMV-Luc2-Hygro). Reagent: single siRNA against human genes, 0.8 pmol siRNA per well. Timing: 72 h. Measured: 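Luciferase light (ONE-Glo) measured on one replicate plate set and viability (CellTiter-Glo) on the other, scaled to a negative control siRNA, with robust z-scores and luciferase per cell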. Direction: total luciferase, z-score and total luciferase, % of control: higher = more reporter protein produced. Active means: 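Active when the median/MAD z-score for overall luciferase is greater than 3; a gene was taken forward for validation with new siRNAs if at least two of its three siRNAs passed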. Meaning of the calls: active = raised luciferase; inactive = no rise.
Here is one part, drawn at random, of about 59,000 reagents tested. Over the whole deposit, about 1,510 (2.6%) got an active call. 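Calls use total luciferase alone and ignore viability, so some active siRNAs may act by altering cell number.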 Further read-outs or replicates are left out here.

PLCD1 (phospholipase C delta 1) [SID160714446]: total luciferase, z-score = 1.15; total luciferase, % of control = 105; call = inactive
PLCD1 (phospholipase C delta 1) [SID160714447]: total luciferase, z-score = 0.542; total luciferase, % of control = 92.7; call = inactive
PLCD1 (phospholipase C delta 1) [SID160714448]: total luciferase, z-score = -0.0977; total luciferase, % of control = 79.9; call = inactive
ZNF41 (zinc finger protein 41) [SID160719073]: total luciferase, z-score = 2.95; total luciferase, % of control = 141; call = inactive
ZNF41 (zinc finger protein 41) [SID160719074]: total luciferase, z-score = -0.408; total luciferase, % of control = 73.8; call = inactive
ZNF41 (zinc finger protein 41) [SID160719075]: total luciferase, z-score = -0.408; total luciferase, % of control = 73.8; call = inactive
HYCC1 (hyccin PI4KA lipid kinase complex subunit 1) [SID160752556]: total luciferase, z-score = 0.845; total luciferase, % of control = 98.7; call = inactive
HYCC1 (hyccin PI4KA lipid kinase complex subunit 1) [SID160752557]: total luciferase, z-score = -0.453; total luciferase, % of control = 72.9; call = inactive
HYCC1 (hyccin PI4KA lipid kinase complex subunit 1) [SID160752558]: total luciferase, z-score = -0.105; total luciferase, % of control = 79.8; call = inactive
ARMCX5 (armadillo repeat containing X-linked 5) [SID160748097]: total luciferase, z-score = -1.5; total luciferase, % of control = 52; call = inactive
ARMCX5 (armadillo repeat containing X-linked 5) [SID160748098]: total luciferase, z-score = -0.705; total luciferase, % of control = 67.9; call = inactive
ARMCX5 (armadillo repeat containing X-linked 5) [SID160748099]: total luciferase, z-score = 0.456; total luciferase, % of control = 91; call = inactive
GLIPR1L1 (GLIPR1 like 1) [SID160762476]: total luciferase, z-score = 0.477; total luciferase, % of control = 91.4; call = inactive
GLIPR1L1 (GLIPR1 like 1) [SID160762477]: total luciferase, z-score = 1.08; total luciferase, % of control = 103; call = inactive
GLIPR1L1 (GLIPR1 like 1) [SID160762479]: total luciferase, z-score = 0.145; total luciferase, % of control = 84.8; call = inactive
RCN1 (reticulocalbin 1) [SID160715755]: total luciferase, z-score = 0.408; total luciferase, % of control = 90; call = inactive
RCN1 (reticulocalbin 1) [SID160715756]: total luciferase, z-score = -1.01; total luciferase, % of control = 61.8; call = inactive
RCN1 (reticulocalbin 1) [SID160715757]: total luciferase, z-score = 0.375; total luciferase, % of control = 89.3; call = inactive
BSX (brain specific homeobox) [SID160766464]: total luciferase, z-score = 1.12; total luciferase, % of control = 104; call = inactive
BSX (brain specific homeobox) [SID160766465]: total luciferase, z-score = -0.23; total luciferase, % of control = 77.3; call = inactive
BSX (brain specific homeobox) [SID160766466]: total luciferase, z-score = 3.35; total luciferase, % of control = 149; call = active

A run of entries from the list above:
HYCC1 (hyccin PI4KA lipid kinase complex subunit 1) [SID160752557]: total luciferase, z-score = -0.453; total luciferase, % of control = 72.9; call = inactive
HYCC1 (hyccin PI4KA lipid kinase complex subunit 1) [SID160752558]: total luciferase, z-score = -0.105; total luciferase, % of control = 79.8; call = inactive
ARMCX5 (armadillo repeat containing X-linked 5) [SID160748097]: total luciferase, z-score = -1.5; total luciferase, % of control = 52; call = inactive
